This experiment concerns the target Flag-HDAC4-WT (wild-type histone deacetylase 4) (human) (UniProt P56524). Put plainly: co-IP.

Sequences of proteins named here, by UniProt entry; tags and fusion partners are left off.
UniProt P56524: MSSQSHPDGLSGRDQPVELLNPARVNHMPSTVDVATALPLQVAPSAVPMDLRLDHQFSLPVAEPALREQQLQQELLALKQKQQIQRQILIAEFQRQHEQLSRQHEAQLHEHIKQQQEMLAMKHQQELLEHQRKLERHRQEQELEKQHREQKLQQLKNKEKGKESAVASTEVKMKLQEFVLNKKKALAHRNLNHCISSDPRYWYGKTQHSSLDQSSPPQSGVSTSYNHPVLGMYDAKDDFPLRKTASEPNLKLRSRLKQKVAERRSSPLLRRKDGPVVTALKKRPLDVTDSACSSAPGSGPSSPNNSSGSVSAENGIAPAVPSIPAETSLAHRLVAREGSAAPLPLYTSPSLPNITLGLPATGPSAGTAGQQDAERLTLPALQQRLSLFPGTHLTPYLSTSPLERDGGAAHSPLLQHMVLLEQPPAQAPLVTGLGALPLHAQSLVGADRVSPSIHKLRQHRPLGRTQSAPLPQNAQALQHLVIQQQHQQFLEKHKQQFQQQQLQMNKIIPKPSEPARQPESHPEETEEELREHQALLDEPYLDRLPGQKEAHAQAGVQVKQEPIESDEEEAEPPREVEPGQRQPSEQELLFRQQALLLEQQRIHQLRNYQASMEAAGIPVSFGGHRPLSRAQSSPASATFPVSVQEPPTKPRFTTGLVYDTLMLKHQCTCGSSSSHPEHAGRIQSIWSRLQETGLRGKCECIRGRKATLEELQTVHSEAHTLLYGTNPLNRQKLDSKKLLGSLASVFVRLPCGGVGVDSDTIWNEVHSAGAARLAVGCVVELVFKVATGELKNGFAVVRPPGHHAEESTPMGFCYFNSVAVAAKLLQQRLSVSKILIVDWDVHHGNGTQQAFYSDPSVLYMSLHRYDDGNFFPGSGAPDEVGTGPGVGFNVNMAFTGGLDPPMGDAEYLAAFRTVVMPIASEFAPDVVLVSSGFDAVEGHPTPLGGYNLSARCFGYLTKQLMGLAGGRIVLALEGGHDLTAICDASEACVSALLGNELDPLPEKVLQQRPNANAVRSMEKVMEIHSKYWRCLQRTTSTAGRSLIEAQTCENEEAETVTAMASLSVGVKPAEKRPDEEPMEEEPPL
UniProt O15379: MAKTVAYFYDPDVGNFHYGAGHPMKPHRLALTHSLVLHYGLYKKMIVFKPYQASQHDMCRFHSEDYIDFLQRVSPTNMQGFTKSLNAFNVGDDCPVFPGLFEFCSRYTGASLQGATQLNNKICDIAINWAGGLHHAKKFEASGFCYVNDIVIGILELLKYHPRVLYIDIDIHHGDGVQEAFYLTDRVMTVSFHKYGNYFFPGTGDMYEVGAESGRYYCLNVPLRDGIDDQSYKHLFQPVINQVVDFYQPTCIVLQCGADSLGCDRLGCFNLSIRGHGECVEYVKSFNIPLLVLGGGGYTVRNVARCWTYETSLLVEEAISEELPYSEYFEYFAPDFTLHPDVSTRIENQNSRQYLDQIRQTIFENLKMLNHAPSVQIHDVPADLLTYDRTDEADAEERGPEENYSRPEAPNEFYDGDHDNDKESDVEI

No constants are given. Whether binding was seen depends on the method and setting. In cells and extracts the contact can be indirect. Some entries that bind do so weakly or less than the wild type.

With HDAC3 (from UniProt O15379 1-428), the binding result is reported as “binds”.

Values taken from doi:10.1101/2025.10.14.682279.
